Assay results as given in patent EP3727588B1, “ACTIVATOR PEPTIDES OF THE ENZYME ADAM 10 AND RELATED USES IN THE TREATMENT OF ALZHEIMER'S DISEASE” (UNIVERSITA' DEGLI STUDI DI MILANO, priority 2017, dated 2019).
At least one peptide structure holds a part that was inferred or is arguable (an end, a ring closure or a residue). Peptide text beside a SMILES is read from it.

Sequences of proteins named here, by UniProt entry; tags and fusion partners are left off. A change or cut given only in a name is not applied to a line headed by its entry.
UniProt Q9DBG3: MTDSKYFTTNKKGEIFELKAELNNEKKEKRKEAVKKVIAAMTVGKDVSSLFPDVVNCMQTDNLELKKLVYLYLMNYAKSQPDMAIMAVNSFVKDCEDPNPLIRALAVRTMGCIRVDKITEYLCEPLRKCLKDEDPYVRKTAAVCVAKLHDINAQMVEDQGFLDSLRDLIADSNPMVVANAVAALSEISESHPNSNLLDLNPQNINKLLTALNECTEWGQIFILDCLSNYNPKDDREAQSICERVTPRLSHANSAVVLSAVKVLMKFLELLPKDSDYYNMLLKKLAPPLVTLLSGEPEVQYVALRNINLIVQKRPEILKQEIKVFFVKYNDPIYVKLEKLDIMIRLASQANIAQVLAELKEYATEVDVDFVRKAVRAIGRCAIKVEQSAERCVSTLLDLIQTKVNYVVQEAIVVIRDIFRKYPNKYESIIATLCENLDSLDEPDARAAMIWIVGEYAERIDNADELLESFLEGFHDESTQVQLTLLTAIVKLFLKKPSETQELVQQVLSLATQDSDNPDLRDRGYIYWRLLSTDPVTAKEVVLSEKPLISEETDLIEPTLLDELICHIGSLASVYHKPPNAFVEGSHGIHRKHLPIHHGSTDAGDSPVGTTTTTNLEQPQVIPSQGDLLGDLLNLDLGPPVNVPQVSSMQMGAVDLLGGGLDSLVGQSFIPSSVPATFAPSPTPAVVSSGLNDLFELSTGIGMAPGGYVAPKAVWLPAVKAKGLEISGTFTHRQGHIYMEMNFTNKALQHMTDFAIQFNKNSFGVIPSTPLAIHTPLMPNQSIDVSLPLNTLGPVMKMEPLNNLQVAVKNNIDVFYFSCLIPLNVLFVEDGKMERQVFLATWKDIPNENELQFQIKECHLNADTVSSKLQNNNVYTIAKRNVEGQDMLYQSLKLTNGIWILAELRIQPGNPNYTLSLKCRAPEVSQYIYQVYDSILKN
UniProt Q811D0, whole entry: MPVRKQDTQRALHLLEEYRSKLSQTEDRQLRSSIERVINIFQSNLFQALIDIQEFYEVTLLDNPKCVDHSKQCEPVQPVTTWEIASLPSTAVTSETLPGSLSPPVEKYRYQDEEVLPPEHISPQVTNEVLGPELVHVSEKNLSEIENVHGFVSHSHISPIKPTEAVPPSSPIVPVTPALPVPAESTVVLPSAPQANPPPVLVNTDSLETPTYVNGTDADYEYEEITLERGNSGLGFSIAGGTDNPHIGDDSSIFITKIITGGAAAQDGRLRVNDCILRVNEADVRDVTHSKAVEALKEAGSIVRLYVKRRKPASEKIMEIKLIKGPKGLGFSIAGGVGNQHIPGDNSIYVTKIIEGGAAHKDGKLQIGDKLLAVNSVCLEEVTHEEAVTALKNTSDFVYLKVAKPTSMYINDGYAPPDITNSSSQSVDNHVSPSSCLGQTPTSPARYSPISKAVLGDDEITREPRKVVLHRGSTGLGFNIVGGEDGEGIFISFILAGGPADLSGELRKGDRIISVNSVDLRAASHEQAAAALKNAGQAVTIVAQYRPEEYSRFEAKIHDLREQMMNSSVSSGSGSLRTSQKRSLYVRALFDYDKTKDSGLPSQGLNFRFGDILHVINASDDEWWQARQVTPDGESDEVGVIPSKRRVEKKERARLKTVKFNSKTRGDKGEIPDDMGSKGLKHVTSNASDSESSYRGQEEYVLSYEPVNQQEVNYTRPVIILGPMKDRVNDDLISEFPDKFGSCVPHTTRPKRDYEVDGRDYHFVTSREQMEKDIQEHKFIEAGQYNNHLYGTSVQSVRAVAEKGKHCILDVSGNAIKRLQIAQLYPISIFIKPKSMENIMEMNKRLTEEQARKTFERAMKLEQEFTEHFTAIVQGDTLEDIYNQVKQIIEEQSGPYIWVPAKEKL

Key:
ADAM10 = test: Western Blot of ADAM10 in total homogenate and synaptic fraction (TIF) of brain of treated C57BL/6 mice; assay type: in vivo; details: for ADAM10/Tubulin OD ratio, total brain lysate: 24 hours (Figure 8C); for ADAM10/Tubulin OD ratio, synaptic fraction (TIF): 24 hours (Figure 8D)
sAPPα = test: Western Blot of sAPPα in soluble brain fraction of treated C57BL/6 mice (ADAM10 activity); assay type: in vivo; details: intraperitoneal 3 nmol/g; for OD ratio between soluble alpha fragment APP (sAPPα) and total soluble APP: C57BL/6 mice, 24 hours (Figure 9)
complex AP2/GABA-A β3 = target: T1, complex AP2/GABA-A β3 (Mus musculus, UniProt Q9DBG3); test: co-immunoprecipitation of GABA-A β3 with α-adaptin in brain homogenate; assay type: in vivo, mice; details: 14 days' treatment
T1 construct: from tissue; host or cells: total brain homogenate of C57BL/6 mice treated for 14 days

ADAM10 and SAP97 = target: T2, ADAM10 and SAP97 (Mus musculus, UniProt Q811D0); test: co-immunoprecipitation of ADAM10 with SAP97 in brain homogenate; assay type: in vivo, mice; details: total brain homogenate, 14 days' treatment
T2 construct: from tissue; host or cells: total brain homogenate of C57BL/6 mice treated for 14 days

dendritic spines = test: dendritic spine morphology and density in hippocampus, WT and APP/PS1 mice of 6 months; assay type: in vivo; details: 14-day treatment
[1] = C57BL/6 mice, intraperitoneal 3 nmol/g
[2] = APP/PS1 (Tg) animals of 6 months

| SMILES | ADAM10/Tubulin OD ratio, total brain lysate (ADAM10; [1]) | ADAM10/Tubulin OD ratio, synaptic fraction (TIF) (ADAM10; [1]) | OD ratio between soluble alpha fragment APP (sAPPα) and total soluble APP (sAPPα) | formation of the complex AP2/GABA-A β3 (complex AP2/GABA-A β3) | ADAM10/tubulin ratio, synaptic levels of ADAM10 (TIF) (ADAM10; C57BL/6 mice, 14 days, daily intraperitoneal 3 nmol/g) | ADAM10/tubulin OD ratio, TIF (ADAM10; intraperitoneal 3 nmol/g, 24 hours (Figure 10)) | ADAM10/tubulin OD ratio, synaptic levels of ADAM10 (ADAM10; intraperitoneal 3 nmol/g, 24 hours (Figure 12)) | interaction between ADAM10 and SAP97 (ADAM10 and SAP97) | OD ratio between sAPPα and sAPP-total (sAPPα; 24 hours (Figure 10)) | ratio of the OD between sAPPα and sAPP-total (sAPPα; 24 hours (Figure 12)) | density of dendritic spines (dendritic spines; [2]) | length of spines (dendritic spines; [2]) | width of the spines (dendritic spines; [2]) | density of dendritic spines (dendritic spines; WT animals) | length of spines (dendritic spines; WT animals) | width of the spines (dendritic spines; WT animals) |
| --- | --- | --- | --- | --- | --- | --- | --- | --- | --- | --- | --- | --- | --- | --- | --- | --- |
| CC(C)C[C@H](NC(=O)[C@H](CCCNC(=N)N)NC(=O)[C@@H]1CCCN1C(=O)[C@H](CCC(=O)O)NC(=O)[C@H](CCC(N)=O)NC(=O)[C@H](CCC(=O)O)NC(=O)[C@@H]1CCCN1C(=O)[C@@H]1CCCN1C(=O)[C@H](CC(C)C)NC(=O)CNC(=O)[C@H](CO)NC(=O)CNC(=O)CNC(=O)[C@H](CCCNC(=N)N)NC(=O)[C@H](CCCNC(=N)N)NC(=O)[C@H](CCCNC(=N)N)NC(=O)[C@H](CCC(N)=O)NC(=O)[C@H](CCCNC(=N)N)NC(=O)[C@H](CCCNC(=N)N)NC(=O)[C@H](CCCCN)NC(=O)[C@H](CCCCN)NC(=O)[C@H](CCCNC(=N)N)NC(=O)CNC(=O)[C@@H](N)Cc1ccc(O)cc1)C(=O)O [inPEP2, reference compound] (H-YGRKKRRQRRRGGSGLPPEQEPRL-OH) | 102.00 ± 5.24% | 103.60 ± 8.69% | 130.80 ± 34.66% |  |  |  |  |  |  |  |  |  |  |  |  |  |
| N=C(N)NCCC[C@H](NC(=O)CNC(=O)[C@@H](N)Cc1ccc(O)cc1)C(=O)N[C@@H](CCCCN)C(=O)N[C@@H](CCCCN)C(=O)N[C@@H](CCCNC(=N)N)C(=O)N[C@@H](CCCNC(=N)N)C(=O)N[C@@H](CCC(N)=O)C(=O)N[C@@H](CCCNC(=N)N)C(=O)N[C@@H](CCCNC(=N)N)C(=O)N[C@@H](CCCNC(=N)N)C(=O)NCC(=O)NCC(=O)N[C@@H](CO)C(=O)NCC(=O)N[C@@H](CCC(N)=O)C(=O)N1CCC[C@H]1C(=O)N1CCC[C@H]1C(=O)N[C@@H](CCC(=O)O)C(=O)N[C@@H](CCC(N)=O)C(=O)N[C@@H](CCC(=O)O)C(=O)N1CCC[C@H]1C(=O)N[C@@H](CCCNC(=N)N)C(=O)NCC(=O)O [inPEP3, reference compound] (H-YGRKKRRQRRRGGSGQPPEQEPRG-OH) | 97.53 ±10.85% | 100.20 ± 8.22% | 98.41 ± 9.69% | +7.80 ±13.08% | 82.97 ± 10.18% | 90.20% ± 5.39 | 6.43 ± 9.23% | -6.80 ± 5.86% | 108.70 ± 8.00% | 92.84 ± 10.05% | 9.42±0.43 no. spines/10µm | 1.10±0.07 µm | 0.62±0.02 µm | 8.39±0.42 no. spines/10µm | 1.17±0.02 µm | 0.71±0.01 µm |
